Source: paper doi:10.1101/2025.03.27.645700
No constants are given. Whether binding was seen depends on the method and setting. Some results given as binding are weak or reduced against the parent protein; the word gives no strength.

T1: HsInturned (human) (UniProt Q9ULD6)
T1 sequence: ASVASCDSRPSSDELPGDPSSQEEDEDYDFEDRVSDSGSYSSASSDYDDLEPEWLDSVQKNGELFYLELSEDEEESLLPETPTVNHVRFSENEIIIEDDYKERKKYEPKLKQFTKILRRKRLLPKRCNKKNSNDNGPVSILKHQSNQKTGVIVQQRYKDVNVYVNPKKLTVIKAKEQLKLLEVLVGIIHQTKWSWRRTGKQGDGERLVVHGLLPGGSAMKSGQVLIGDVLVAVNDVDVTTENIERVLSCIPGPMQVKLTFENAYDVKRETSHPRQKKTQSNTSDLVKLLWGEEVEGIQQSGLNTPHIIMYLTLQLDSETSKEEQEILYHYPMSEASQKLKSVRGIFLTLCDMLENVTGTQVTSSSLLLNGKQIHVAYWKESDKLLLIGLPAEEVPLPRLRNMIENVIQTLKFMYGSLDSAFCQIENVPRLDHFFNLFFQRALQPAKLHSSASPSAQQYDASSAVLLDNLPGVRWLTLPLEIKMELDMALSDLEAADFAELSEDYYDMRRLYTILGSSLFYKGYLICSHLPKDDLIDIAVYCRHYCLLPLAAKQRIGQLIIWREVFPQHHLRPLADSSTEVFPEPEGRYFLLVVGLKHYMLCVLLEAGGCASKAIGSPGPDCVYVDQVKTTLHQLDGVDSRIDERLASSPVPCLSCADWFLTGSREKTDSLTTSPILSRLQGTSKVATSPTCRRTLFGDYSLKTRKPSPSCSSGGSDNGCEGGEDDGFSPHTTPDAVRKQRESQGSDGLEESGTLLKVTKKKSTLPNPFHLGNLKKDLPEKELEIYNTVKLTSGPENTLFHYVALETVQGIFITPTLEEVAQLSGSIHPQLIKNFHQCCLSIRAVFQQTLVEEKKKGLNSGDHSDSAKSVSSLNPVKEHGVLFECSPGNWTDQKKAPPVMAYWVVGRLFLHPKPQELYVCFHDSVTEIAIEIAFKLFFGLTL

T2: HsFuzzy (human) (UniProt Q9BT04)
T2 sequence: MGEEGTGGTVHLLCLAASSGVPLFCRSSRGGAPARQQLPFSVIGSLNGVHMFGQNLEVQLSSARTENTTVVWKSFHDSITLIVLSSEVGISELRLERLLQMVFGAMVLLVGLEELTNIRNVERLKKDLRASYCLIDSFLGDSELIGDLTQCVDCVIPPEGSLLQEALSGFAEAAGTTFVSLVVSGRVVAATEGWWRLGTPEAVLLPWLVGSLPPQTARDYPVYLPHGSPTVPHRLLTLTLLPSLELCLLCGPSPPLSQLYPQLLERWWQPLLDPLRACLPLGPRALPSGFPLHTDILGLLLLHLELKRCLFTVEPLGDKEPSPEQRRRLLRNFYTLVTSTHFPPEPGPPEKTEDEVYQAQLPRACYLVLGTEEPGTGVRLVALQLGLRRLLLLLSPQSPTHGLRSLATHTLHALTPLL

B1: HsFuzzy (protein, UniProt Q9BT04 1-418)
chain: T2 sequence
B2: HsRab23^N121I (protein, UniProt Q9ULC3 1-237)
chain: MLEEDMEVAIKMVVVGNGAVGKSSMIQRYCKGIFTKDYKKTIGVDFLERQIQVNDEDVRLMLWDTAGQEEFDAITKAYYRGAQACVLVFSTTDRESFEAVSSWREKVVAEVGDIPTVLVQIKIDLLDDSCIKNEEAEALAKRLKLRFYRTSVKEDLNVNEVFKYLAEKYLQKLKQQIAEDPELTHSSSNKIGVFNTSGGSHSGQNSGTLNGGDVINLRPNKQRTKKNRNPFSSCSIP

Assays:
HsInturned (human) = molecular target: T1, HsInturned (human); test: cryo-EM structure
HsFuzzy (human) = molecular target: T2, HsFuzzy (human); test: cryo-EM structure

| Binder | binding (HsInturned (human)) | binding (HsFuzzy (human)) |
| --- | --- | --- |
| B1 | binds | – |
| B2 | binds | binds |
